Reference: US5252581A, “Substituted aminothienopyridines, pharmaceutical composition and use” (Hoechst-Roussel Pharmaceuticals Inc., priority 1992, dated 1993)

Protein sequences, listed by entry. Tags and fused reporters are not part of them. Residues count along the entry.
UniProt Q63380, 1-617: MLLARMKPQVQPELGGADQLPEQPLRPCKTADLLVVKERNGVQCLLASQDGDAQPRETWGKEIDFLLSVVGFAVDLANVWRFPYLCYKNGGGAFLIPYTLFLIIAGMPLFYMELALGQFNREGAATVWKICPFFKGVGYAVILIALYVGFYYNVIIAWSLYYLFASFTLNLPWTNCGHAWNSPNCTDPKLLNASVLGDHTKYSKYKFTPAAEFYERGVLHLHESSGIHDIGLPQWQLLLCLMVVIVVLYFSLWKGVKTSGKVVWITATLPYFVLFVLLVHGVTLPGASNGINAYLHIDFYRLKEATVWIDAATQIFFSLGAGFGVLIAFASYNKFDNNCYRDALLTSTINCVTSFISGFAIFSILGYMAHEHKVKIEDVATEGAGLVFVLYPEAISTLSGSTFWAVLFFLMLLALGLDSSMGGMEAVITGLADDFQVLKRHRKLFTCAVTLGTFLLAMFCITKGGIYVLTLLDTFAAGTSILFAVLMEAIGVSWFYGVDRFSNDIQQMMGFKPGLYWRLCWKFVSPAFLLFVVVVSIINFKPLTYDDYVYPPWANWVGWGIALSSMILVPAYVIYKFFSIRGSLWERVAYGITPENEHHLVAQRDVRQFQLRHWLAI

Target: T1, ^3 H-Norepinephrine reuptake (Rattus norvegicus, UniProt Q63380)
T1 construct: from tissue; host or cells: whole brain (WB), rat inferred
Experiment: Inhibition of Biogenic Amine Reuptake, ^3 H-Norepinephrine (WB)
Assay type: biochemical

## CN(C)CCCN1c2ccccc2CCc2ccc(Cl)cc21 [Clomipramine, reference compound]
  IC50: 0.36 µM
